These are yes or no findings as the source states them, for the method shown. Binding seen in cells or lysates may run through a third protein. Some binding calls cover weakened binding; strength is not graded here. Where a sequence is shown, tags or fusion partners need not be part of it.

The chains behind the UniProt entries cited, without tags or fusion partners.
UniProt P16220: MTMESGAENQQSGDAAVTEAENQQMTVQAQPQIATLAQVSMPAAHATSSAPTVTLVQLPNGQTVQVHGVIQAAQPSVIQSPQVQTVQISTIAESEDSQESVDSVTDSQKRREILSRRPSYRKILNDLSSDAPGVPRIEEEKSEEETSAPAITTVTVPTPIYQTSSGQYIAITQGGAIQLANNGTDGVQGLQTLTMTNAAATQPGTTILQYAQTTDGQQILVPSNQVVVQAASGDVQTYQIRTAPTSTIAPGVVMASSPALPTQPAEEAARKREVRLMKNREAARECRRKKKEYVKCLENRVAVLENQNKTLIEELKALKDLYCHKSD
UniProt O14744: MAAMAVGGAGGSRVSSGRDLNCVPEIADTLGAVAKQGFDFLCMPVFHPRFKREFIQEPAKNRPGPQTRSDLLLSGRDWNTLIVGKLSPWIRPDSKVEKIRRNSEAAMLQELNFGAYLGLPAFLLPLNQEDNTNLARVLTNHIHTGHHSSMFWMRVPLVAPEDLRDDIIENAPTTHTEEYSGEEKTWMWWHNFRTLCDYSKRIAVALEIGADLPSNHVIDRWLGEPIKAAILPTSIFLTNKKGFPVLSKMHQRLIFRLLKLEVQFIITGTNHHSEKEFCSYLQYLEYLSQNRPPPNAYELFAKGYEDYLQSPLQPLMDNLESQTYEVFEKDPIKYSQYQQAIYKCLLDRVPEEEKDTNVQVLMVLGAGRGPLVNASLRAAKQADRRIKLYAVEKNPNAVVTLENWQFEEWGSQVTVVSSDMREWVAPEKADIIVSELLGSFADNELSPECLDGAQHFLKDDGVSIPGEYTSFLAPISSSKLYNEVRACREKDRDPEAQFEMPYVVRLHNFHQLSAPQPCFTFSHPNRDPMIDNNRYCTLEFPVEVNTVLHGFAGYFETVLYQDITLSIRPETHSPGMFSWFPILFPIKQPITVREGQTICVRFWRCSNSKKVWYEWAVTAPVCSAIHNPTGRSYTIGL
UniProt P04406: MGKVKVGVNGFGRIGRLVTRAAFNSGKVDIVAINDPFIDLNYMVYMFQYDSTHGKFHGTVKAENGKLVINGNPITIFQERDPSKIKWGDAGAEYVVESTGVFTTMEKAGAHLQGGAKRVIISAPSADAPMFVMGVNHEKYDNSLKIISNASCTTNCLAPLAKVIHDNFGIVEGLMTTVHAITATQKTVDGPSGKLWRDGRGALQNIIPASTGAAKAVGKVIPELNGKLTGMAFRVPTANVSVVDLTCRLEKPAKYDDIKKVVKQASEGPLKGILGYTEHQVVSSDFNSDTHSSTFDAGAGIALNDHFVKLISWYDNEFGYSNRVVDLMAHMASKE
UniProt Q92793: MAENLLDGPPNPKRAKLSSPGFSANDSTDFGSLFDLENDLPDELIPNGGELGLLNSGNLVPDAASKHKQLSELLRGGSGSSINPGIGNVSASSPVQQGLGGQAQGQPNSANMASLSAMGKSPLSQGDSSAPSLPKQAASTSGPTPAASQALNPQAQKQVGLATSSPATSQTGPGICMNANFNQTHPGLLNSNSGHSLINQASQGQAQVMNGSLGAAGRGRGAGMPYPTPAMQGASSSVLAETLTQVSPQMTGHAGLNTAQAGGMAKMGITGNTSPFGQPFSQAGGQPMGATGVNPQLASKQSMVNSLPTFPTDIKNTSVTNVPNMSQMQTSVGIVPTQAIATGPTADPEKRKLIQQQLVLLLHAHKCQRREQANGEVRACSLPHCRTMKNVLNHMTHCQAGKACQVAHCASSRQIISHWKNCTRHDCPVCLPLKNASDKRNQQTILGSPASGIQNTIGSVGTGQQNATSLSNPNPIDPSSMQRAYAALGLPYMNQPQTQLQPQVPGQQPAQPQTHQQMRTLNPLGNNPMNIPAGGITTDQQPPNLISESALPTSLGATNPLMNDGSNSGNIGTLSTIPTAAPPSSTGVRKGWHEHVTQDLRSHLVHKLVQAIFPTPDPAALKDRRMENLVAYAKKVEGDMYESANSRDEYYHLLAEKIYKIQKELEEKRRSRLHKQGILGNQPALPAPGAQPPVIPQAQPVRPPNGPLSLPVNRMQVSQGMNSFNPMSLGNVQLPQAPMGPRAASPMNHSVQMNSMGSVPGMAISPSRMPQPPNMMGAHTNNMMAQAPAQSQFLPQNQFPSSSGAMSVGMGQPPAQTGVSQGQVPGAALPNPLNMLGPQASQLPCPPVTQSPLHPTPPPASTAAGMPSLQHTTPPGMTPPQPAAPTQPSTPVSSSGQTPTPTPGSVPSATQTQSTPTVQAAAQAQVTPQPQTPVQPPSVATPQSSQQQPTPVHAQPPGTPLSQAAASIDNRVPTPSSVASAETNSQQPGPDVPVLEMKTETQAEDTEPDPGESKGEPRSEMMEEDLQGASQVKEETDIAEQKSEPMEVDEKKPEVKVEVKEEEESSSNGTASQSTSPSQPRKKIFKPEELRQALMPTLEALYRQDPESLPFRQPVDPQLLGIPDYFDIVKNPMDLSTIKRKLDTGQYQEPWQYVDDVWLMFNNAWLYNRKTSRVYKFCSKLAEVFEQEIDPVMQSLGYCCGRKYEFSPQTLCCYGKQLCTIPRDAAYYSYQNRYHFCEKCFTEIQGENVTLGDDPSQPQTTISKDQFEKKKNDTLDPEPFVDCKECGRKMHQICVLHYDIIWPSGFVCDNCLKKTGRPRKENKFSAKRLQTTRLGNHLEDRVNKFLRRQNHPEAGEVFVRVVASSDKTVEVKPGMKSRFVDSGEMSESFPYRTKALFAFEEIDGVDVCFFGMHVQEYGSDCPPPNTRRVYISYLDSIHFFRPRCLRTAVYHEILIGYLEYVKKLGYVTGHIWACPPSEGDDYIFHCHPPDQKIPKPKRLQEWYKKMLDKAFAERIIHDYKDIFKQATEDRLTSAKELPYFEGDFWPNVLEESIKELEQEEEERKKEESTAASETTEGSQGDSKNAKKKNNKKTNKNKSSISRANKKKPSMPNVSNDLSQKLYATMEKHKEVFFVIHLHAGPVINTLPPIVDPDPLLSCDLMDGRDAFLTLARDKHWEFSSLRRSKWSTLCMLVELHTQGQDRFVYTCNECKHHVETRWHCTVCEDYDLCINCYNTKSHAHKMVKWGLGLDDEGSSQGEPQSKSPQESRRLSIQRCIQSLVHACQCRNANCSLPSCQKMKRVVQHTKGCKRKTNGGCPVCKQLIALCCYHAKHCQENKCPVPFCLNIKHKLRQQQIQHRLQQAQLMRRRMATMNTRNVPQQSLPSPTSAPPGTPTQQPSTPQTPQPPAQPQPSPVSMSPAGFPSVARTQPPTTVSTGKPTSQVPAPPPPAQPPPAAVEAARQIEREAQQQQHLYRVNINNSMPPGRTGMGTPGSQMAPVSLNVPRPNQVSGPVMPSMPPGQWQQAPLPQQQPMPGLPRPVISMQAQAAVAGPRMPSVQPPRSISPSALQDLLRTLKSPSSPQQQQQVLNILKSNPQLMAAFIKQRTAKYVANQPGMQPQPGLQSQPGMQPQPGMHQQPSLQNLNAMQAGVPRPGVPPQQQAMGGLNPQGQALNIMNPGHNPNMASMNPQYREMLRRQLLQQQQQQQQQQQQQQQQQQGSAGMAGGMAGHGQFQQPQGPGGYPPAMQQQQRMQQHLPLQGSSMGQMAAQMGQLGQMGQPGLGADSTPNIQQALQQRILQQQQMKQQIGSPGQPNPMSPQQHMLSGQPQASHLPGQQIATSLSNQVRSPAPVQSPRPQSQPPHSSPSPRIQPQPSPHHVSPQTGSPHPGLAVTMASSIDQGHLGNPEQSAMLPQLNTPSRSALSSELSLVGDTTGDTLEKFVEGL

The test deals with T1, Flag-tagged EWSR1(2-325)-ATF1(66-271) fusion (UniProt Q01844).
T1 sequence: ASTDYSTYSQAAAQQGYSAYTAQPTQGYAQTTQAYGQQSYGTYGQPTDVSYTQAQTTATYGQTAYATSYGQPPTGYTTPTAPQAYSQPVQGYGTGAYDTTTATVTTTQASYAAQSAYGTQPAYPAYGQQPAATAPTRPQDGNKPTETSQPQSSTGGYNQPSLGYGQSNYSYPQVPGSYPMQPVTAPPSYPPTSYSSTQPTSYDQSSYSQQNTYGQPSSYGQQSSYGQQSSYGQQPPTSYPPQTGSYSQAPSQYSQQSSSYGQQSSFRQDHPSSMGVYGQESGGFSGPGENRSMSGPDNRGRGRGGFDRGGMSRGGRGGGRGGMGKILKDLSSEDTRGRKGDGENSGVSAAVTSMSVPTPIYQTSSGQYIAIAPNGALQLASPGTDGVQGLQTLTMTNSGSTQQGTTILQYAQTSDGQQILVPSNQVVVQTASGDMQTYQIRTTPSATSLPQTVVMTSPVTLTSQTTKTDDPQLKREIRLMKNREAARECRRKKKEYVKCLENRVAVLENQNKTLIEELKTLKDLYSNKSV
Description: co-IP.
For CREB1 (from UniProt P16220 1-327), the binding entry is “binds”.
In the case of “protein arginine methyltransferase 5 (PRMT5) (from UniProt O14744 1-637) (enzyme)” it was “binds”.
In the case of GAPDH (from UniProt P04406 1-335) it was “no binding”.
In the case of “CREB-binding protein (CBP) (from UniProt Q92793 1-2442)” it was “no binding”.

For the origin of these results see paper doi:10.1101/2022.03.23.485409.
